PubChem BioAssay AID1159584 | Peter MacCallum Cancer Centre, 2016
The deposit covers about 18,000 reagents; below is a random part of them. Not all columns of the deposit are shown. Not given: the amount of reagent, the time to read-out.

- Aim: 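Genes whose loss is lethal only together with E-cadherin loss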 (primary screen)
- System: human MCF10A breast epithelial cells, parental and CDH1-null
- Knock-down reagent: siRNA against human genes
- Read-out: 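ATP luminescence (CellTiter-Glo) viability per line relative to mean mock wells over all plates, and the ratio of CDH1-null to parental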
- Direction: CDH1-null / parental viability ratio: higher = CDH1-null cells survive relatively better than parental

target gene	CDH1-null / parental viability ratio
KRT18P55 (keratin 18 pseudogene 55)	1.31
SET (SET nuclear proto-oncogene)	1.43
PRR7 (proline rich 7, synaptic)	1.22
PAK4 (p21 (RAC1) activated kinase 4)	1.01
CCT6A (chaperonin containing TCP1 subunit 6A)	0.96
NXPH3 (neurexophilin 3)	1.63
ZC3H15 (zinc finger CCCH-type containing 15)	0.76
SP7 (Sp7 transcription factor)	1.1
ARHGEF37 (Rho guanine nucleotide exchange factor 37)	1.13
XPO6 (exportin 6)	0.92
ZFYVE9 (zinc finger FYVE-type containing 9)	0.84
LRFN2	0.8
NKX2-8 (NK2 homeobox 8)	0.85
CNTNAP5 (contactin associated protein family member 5)	1
LCA5L (lebercilin LCA5 like)	0.69
RNF212 (ring finger protein 212)	0.88
PTGIS (prostaglandin I2 synthase)	0.74
CES5A (carboxylesterase 5A)	0.92
MAP3K19 (mitogen-activated protein kinase kinase kinase 19)	1.05
SLC9A8	1.05
ADA (adenosine deaminase)	0.96
SOAT2 (sterol O-acyltransferase 2)	0.9
SLC38A12	1.07
RPS6KA2 (ribosomal protein S6 kinase A2)	0.98
IL12RB1 (interleukin 12 receptor subunit beta 1)	0.91
GLRX2 (glutaredoxin 2)	1.18
REPIN1 (replication initiator 1)	0.91
CDY1B (chromodomain Y-linked 1B)	1.21
TXLNA (taxilin alpha)	0.93
HJURP (Holliday junction recognition protein)	1.06
POLR3G (RNA polymerase III subunit G)	0.75
RPS9 (ribosomal protein S9)	1.01
GIPC3 (GIPC PDZ domain containing family member 3)	1.24
BNIPL (BCL2 interacting protein like)	0.9
MEIS1 (Meis homeobox 1)	1.04
PRX (periaxin)	1.22
TCF3 (transcription factor 3)	0.88
MPHOSPH8 (M-phase phosphoprotein 8)	1
UBE2Q1 (ubiquitin conjugating enzyme E2 Q1)	0.96
SCGB2B2 (secretoglobin family 2B member 2)	1.09
BEX5 (brain expressed X-linked 5)	1.08
DEFB4A (defensin beta 4A)	1.3
FOXO1 (forkhead box O1)	0.98

In a second layout: results already given
MAP3K19 (mitogen-activated protein kinase kinase kinase 19) | CDH1-null / parental viability ratio = 1.05
SLC9A8 | CDH1-null / parental viability ratio = 1.05
ADA (adenosine deaminase) | CDH1-null / parental viability ratio = 0.96
SOAT2 (sterol O-acyltransferase 2) | CDH1-null / parental viability ratio = 0.9
SLC38A12 | CDH1-null / parental viability ratio = 1.07
RPS6KA2 (ribosomal protein S6 kinase A2) | CDH1-null / parental viability ratio = 0.98
IL12RB1 (interleukin 12 receptor subunit beta 1) | CDH1-null / parental viability ratio = 0.91

The listing continues.
target gene	CDH1-null / parental viability ratio
NRSN1 (neurensin 1)	0.94
GOLGA6B (golgin A6 family member B)	0.8
C3orf38 (chromosome 3 open reading frame 38)	1.29
RPL30 (ribosomal protein L30)	1.5
BARHL1 (BarH like homeobox 1)	1.23
MYBPH (myosin binding protein H)	1.04
CINP (cyclin dependent kinase 2 interacting protein)	0.77
MT1H (metallothionein 1H)	1.06
STX18 (syntaxin 18)	0.97
ADARB1 (adenosine deaminase RNA specific B1)	0.75
EXTL3 (exostosin like glycosyltransferase 3)	0.92
SLC29A2	0.78
IRAK1 (interleukin 1 receptor associated kinase 1)	1.03
DUSP5 (dual specificity phosphatase 5)	1.49
BIRC2 (baculoviral IAP repeat containing 2)	0.9
LGSN (lengsin, lens protein with glutamine synthetase domain)	0.93
TFPT (TCF3 fusion partner)	0.68
TAF5 (TATA-box binding protein associated factor 5)	0.96
ZNF3 (zinc finger protein 3)	1.28
TRMT44 (tRNA methyltransferase 44 homolog)	1.03
NMNAT3 (nicotinamide nucleotide adenylyltransferase 3)	1.05
TMX4 (thioredoxin related transmembrane protein 4)	0.9
CLASRP (CLK4 associating serine/arginine rich protein)	0.68
BRCC3 (BRCA1/BRCA2-containing complex subunit 3)	0.73
ZNF829 (zinc finger protein 829)	1.06
RIC1 (RIC1 partner of RAB6A GEF complex)	1.09
LPAR3 (lysophosphatidic acid receptor 3)	1.55
SIX6 (SIX homeobox 6)	1
ACTA1 (actin alpha 1, skeletal muscle)	0.85
SDCBP (syndecan binding protein)	1.08
UBE3A (ubiquitin protein ligase E3A)	1.27
DBT (dihydrolipoamide branched chain transacylase E2)	0.95
ALDH2 (aldehyde dehydrogenase 2 family member)	0.82
BAX (BCL2 associated X, apoptosis regulator)	1.28
CUL2 (cullin 2)	1.4
TRAP1 (TNF receptor associated protein 1)	0.91
ZDHHC11 (zDHHC palmitoyltransferase 11)	1.21
RNF168 (ring finger protein 168)	1
SH3BP5L (SH3 binding domain protein 5 like)	1.27
TDP2 (tyrosyl-DNA phosphodiesterase 2)	1.08
PHF10 (PHD finger protein 10)	0.9
C1orf141 (chromosome 1 open reading frame 141)	0.88
ADGRD2 (adhesion G protein-coupled receptor D2)	0.9
ZBTB10 (zinc finger and BTB domain containing 10)	0.67
